Results published in paper PMC12328827.
No constants are given. Whether binding was seen depends on the method and setting. Binding seen in cells or lysates may run through a third protein. Some results given as binding are weak or reduced against the parent protein; the word gives no strength. Blank lines part the entries; values can stand above or below the molecule they belong to.

Sequences of proteins named here, by UniProt entry; tags and fusion partners are left off. A change or cut given only in a name is not applied to a line headed by its entry. A line that says so, or that is headed by a name, gives the form on record, which may keep a tag or linker.
KIT Δ560–578 mutant (constitutively active, imatinib-sensitive) of GIST-T1 cells (human (endogenous in GIST-T1)) (P10721, form named): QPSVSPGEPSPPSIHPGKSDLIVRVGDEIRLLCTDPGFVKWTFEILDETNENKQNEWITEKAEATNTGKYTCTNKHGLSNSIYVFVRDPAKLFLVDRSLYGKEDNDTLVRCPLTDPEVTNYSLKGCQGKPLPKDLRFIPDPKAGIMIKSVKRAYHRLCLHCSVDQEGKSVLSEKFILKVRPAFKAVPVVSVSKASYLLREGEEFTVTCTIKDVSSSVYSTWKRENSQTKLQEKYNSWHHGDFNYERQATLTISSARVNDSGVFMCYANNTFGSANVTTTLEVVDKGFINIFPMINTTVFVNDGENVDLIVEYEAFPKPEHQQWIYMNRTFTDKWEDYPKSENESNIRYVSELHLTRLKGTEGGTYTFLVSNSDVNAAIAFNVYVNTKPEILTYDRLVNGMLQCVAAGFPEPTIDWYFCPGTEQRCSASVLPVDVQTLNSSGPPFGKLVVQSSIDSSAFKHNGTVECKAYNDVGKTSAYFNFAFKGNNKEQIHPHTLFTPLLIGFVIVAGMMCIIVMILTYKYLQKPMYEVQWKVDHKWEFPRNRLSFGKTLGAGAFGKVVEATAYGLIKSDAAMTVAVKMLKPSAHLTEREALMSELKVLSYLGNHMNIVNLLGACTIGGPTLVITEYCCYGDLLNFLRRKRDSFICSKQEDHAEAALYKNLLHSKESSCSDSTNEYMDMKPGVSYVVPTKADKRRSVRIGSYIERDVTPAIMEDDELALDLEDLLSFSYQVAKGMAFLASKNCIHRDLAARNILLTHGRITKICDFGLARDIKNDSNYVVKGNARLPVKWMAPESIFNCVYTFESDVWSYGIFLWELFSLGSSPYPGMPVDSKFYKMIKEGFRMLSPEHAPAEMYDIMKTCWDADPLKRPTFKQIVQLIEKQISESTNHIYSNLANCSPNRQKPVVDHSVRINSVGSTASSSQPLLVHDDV
UniProt O14939: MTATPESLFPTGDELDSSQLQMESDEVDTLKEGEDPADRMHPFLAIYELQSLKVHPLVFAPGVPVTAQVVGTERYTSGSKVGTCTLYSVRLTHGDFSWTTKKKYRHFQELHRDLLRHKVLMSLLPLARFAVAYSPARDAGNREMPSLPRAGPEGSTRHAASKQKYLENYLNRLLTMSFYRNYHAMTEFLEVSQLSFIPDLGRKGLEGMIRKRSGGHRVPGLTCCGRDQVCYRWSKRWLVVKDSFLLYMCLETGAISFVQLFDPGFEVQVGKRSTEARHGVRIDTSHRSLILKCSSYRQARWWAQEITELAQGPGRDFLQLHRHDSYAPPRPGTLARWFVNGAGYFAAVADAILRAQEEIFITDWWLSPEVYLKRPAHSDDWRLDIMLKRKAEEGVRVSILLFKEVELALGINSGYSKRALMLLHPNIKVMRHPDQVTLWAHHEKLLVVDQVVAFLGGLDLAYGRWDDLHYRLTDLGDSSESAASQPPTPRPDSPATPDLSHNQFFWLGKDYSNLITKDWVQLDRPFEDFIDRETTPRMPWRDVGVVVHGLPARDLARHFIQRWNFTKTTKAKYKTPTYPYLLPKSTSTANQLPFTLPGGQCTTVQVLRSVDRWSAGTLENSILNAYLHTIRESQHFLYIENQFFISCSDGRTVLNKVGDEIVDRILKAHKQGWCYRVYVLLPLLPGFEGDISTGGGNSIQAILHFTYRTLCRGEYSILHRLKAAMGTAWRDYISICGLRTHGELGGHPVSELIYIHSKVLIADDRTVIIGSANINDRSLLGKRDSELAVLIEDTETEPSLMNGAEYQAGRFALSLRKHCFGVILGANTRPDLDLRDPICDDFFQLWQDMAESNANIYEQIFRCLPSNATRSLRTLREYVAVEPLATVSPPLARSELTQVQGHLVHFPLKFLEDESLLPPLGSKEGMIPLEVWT

Legend:
[1] = biological target: KIT Δ560–578 mutant (constitutively active, imatinib-sensitive) of GIST-T1 cells (human (endogenous in GIST-T1)) (UniProt P10721); test: co-IP; KIT immunoprecipitated from GIST-T1 lysates (NP-40 lysis buffer, 4 °C, 5 h, Dynabeads Protein G pre-coated with anti-KIT; anti-ALK as control antibody), blotted for PLD2; cells untreated or treated with 200 nM imatinib for 8 h
[2] = biological target: T1, Golgi-localised, γ-ear-containing, ARF-binding family of protein 1 (human (endogenous in GIST-T1)), Q9UJY5; test: co-IP; GGA1 immunoprecipitated from GIST-T1 lysates (NP-40 lysis buffer, 4 °C, 5 h, Dynabeads Protein G pre-coated with anti-GGA1; control antibody IP), blotted for γ-adaptin; cells untreated or treated with 20 µM PIK-93, 10 µM CRT0066101 or 20 µM CAY10594 for 8 h; settings: remark: other sources report otherwise
T1 chain: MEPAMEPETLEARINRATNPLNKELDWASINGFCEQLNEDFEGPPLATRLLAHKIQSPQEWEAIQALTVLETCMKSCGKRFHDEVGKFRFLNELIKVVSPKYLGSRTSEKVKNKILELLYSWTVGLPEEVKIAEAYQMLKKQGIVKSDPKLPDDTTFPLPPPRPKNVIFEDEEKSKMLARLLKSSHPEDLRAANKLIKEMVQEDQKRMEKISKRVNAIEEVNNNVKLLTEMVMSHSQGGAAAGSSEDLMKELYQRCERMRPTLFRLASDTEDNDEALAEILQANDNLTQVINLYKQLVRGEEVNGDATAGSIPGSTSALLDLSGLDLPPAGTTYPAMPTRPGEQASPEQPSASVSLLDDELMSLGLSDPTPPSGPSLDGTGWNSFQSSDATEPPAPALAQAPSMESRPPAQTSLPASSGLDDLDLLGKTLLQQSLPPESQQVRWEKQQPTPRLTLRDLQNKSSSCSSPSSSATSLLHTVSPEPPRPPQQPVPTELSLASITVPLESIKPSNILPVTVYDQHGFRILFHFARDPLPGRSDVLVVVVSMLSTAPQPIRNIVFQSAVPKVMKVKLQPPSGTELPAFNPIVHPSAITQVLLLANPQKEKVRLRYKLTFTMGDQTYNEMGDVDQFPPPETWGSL

Molecule: phospholipase D2 (from UniProt O14939 1-933) (enzyme)
binding [1]: binds

binding [2]: binds
B1: γ-adaptin subunit of the adaptor protein-1 complex (AP1), O43747 1-822 (protein)
chain: MPAPIRLRELIRTIRTARTQAEEREMIQKECAAIRSSFREEDNTYRCRNVAKLLYMHMLGYPAHFGQLECLKLIASQKFTDKRIGYLGAMLLLDERQDVHLLMTNCIKNDLNHSTQFVQGLALCTLGCMGSSEMCRDLAGEVEKLLKTSNSYLRKKAALCAVHVIRKVPELMEMFLPATKNLLNEKNHGVLHTSVVLLTEMCERSPDMLAHFRKLVPQLVRILKNLIMSGYSPEHDVSGISDPFLQVRILRLLRILGRNDDDSSEAMNDILAQVATNTETSKNVGNAILYETVLTIMDIKSESGLRVLAINILGRFLLNNDKNIRYVALTSLLKTVQTDHNAVQRHRSTIVDCLKDLDVSIKRRAMELSFALVNGNNIRGMMKELLYFLDSCEPEFKADCASGIFLAAEKYAPSKRWHIDTIMRVLTTAGSYVRDDAVPNLIQLITNSVEMHAYTVQRLYKAILGDYSQQPLVQVAAWCIGEYGDLLVSGQCEEEEPIQVTEDEVLDILESVLISNMSTSVTRGYALTAIMKLSTRFTCTVNRIKKVVSIYGSSIDVELQQRAVEYNALFKKYDHMRSALLERMPVMEKVTTNGPTEIVQTNGETEPAPLETKPPPSGPQPTSQANDLLDLLGGNDITPVIPTAPTSKPSSAGGELLDLLGDINLTGAPAAAPAPASVPQISQPPFLLDGLSSQPLFNDIAAGIPSITAYSKNGLKIEFTFERSNTNPSVTVITIQASNSTELDMTDFVFQAAVPKTFQLQLLSPSSSIVPAFNTGTITQVIKVLNPQKQQLRMRIKLTYNHKGSAMQDLAEVNNFPPQSWQ
